# According to article PMC7819943, “Rice protein-binding microarrays: a tool to detect cis-acting elements near promoter regions in rice”:
# Chains of the proteins cited; added tags and fusions are not shown.
# UniProt Q0JBA9, entry or part of it: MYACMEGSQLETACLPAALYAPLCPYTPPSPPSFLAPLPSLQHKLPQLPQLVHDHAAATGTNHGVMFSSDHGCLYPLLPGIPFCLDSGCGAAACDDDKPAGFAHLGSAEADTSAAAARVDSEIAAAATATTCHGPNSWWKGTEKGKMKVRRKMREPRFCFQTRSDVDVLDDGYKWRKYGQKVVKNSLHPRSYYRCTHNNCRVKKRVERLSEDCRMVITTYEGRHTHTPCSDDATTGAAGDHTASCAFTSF
# This is one part of the list.
# Target: OsWRKY34 (Oryza sativa, UniProt Q0JBA9 1-250)
# Experiment: protein-binding microarray (RPBM); PBS, 2% BSA, 51.3 ng/ul salmon testes DNA, 50 uM zinc acetate, 200 nM TF, 25 C, 1 h; high values mean tight binding
# Conditions: protein: recombinant; tags: N-terminal polyhistidine and DsRed monomer fusion (pET32a); label: CyDye5-dUTP incorporated in the synthesized complementary strand; 3' TTTTT single-stranded linker to array surface; dsDNA, one strand shown
# Summary of the method: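 Binding signal here means per-feature fluorescence intensity in arbitrary units. The values were read on an Axon 4000B scanner after a custom Agilent array, double-stranded by primer extension with Cy5-dUTP, was incubated with 200 nM protein at 25 °C for 1 h in PBS with 2% BSA, salmon testes DNA and 50 µM zinc acetate, then washed. The proteins were transcription factors with an N-terminal polyhistidine tag and DsRed, expressed in E. coli BL21-CodonPlus and purified on Ni–NTA.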
row,Sequence,binding signal
1,CCCCTTTGCTTTGCTCGTGCTCTGCTCACATTTGTTTCTCCGGAGTCACCTAGTGCAG,8050 fluorescence intensity (a.u.)
2,TTGGTACCAATTTGAACATACACATAGTTGGAGGGGTTTTCGGAGTCACCTAGTGCAG,8150 fluorescence intensity (a.u.)
3,TTCCGACCACCCCGTCCTCACCACCGCCGCCGCCGCTCCCCGGAGTCACCTAGTGCAG,8290 fluorescence intensity (a.u.)
4,GGGGTGTTTGGTTGAGGGGTGGGTGGGATGGATTGGTCCTCGGAGTCACCTAGTGCAG,32300 fluorescence intensity (a.u.)
5,CGTCTCGGCGAATTTTACGGCTTTTGTCATTTCAACAGAACGGAGTCACCTAGTGCAG,8050 fluorescence intensity (a.u.)
6,CGGTTCAACTTTCGTCTTTTGAGATCCCTAGTGTGGCAATCGGAGTCACCTAGTGCAG,8140 fluorescence intensity (a.u.)
7,CTCTCGACCTTTCGGTCTCTTGATCCCCATTTGTCTCAATCGGAGTCACCTAGTGCAG,9000 fluorescence intensity (a.u.)
8,ACCGACTAGCAGGCAGCACGTCATCGCTGGCCTTCATCACCGGAGTCACCTAGTGCAG,8120 fluorescence intensity (a.u.)
9,TGCCATCGCGCGCTTTTGCCCACCGCTTCTCTCCTCCTCCCGGAGTCACCTAGTGCAG,8660 fluorescence intensity (a.u.)
10,ATCACCTTAATATAATTGATTGAGATCAATAAGGTTTTTACGGAGTCACCTAGTGCAG,10300 fluorescence intensity (a.u.)
11,CCCGTCAATCCAGCCATGACAACCTGATCCGTCCACGGTGCGGAGTCACCTAGTGCAG,8190 fluorescence intensity (a.u.)
12,ATAGATGTTTCTTGCTGTAGGTATTTGGTTTCCATTCAGCCGGAGTCACCTAGTGCAG,8260 fluorescence intensity (a.u.)
13,TTTCAACTATGCCTAATACTCTTGCTGGGTCGGTTGCAACCGGAGTCACCTAGTGCAG,10200 fluorescence intensity (a.u.)
14,CCACTTCTTCTCATCCACCCACTGTAGCCTCGAGACCACACGGAGTCACCTAGTGCAG,8430 fluorescence intensity (a.u.)
15,GAAGCGAAGCAGGCGACCATTTTGTTTTTTTCCTTTTAATCGGAGTCACCTAGTGCAG,8820 fluorescence intensity (a.u.)
16,ATAATTATACTCTCGTTTTGCATATCTTCTAACTTTTTTTCGGAGTCACCTAGTGCAG,9780 fluorescence intensity (a.u.)
17,AGTGATATGTTTTCAGTTCAGACCTGAGCTGAGTTTCCTTCGGAGTCACCTAGTGCAG,8770 fluorescence intensity (a.u.)
18,GCAGAATTTTTCCCAGAGGCGTTTCTCATTTTCTAGACAGCGGAGTCACCTAGTGCAG,9960 fluorescence intensity (a.u.)
19,TTGTTAATCCAACCTGCCTCTATGCCTATGCGTATGTTCTCGGAGTCACCTAGTGCAG,9180 fluorescence intensity (a.u.)
20,TGTGTACTATGCTGTTTGGAGTATGCGCTGAATCTGATTACGGAGTCACCTAGTGCAG,8420 fluorescence intensity (a.u.)
21,ATTTTGCAAATGTCAATTGTACATGAACTCTATCTGCAATCGGAGTCACCTAGTGCAG,8260 fluorescence intensity (a.u.)

row,Sequence,binding signal
1,TGTATATGTTTTATAGAGAGCACCTTACTTTACCATTTTCCGGAGTCACCTAGTGCAG,8400 fluorescence intensity (a.u.)
2,TGCCGCTGCTCCGCCCGCAAGCCGTGCTTGCCTGCCACCGCGGAGTCACCTAGTGCAG,8480 fluorescence intensity (a.u.)
3,TCGGTGGGTGGGTTGAGGATCGTGACAGTTACCGAGCATGCGGAGTCACCTAGTGCAG,11800 fluorescence intensity (a.u.)
4,GTCTCCATCGCTTCCTTGTTGGCCTGTTCCTGCGAGCTTCCGGAGTCACCTAGTGCAG,10400 fluorescence intensity (a.u.)
5,TTGGAGTTGGTATGGGAAATTTGTGTGGGCTATAGTTTGTCGGAGTCACCTAGTGCAG,11300 fluorescence intensity (a.u.)
6,TACTCTCTGACTCAGCAAACAATCACATAATCCTCTAAGACGGAGTCACCTAGTGCAG,9040 fluorescence intensity (a.u.)
7,TATATCATTTGTATTTCATTCCTGCTTTATACCATTCTAACGGAGTCACCTAGTGCAG,10400 fluorescence intensity (a.u.)
8,GAGAAGTGATCTTTGCTGGGTAGGGGCACCGGAGCTCCGTCGGAGTCACCTAGTGCAG,11900 fluorescence intensity (a.u.)
9,ACCACCAGTCCACCACCAAAATTAGCATGGAAGCAGCTTCCGGAGTCACCTAGTGCAG,9460 fluorescence intensity (a.u.)
10,TGTGTGTCACGTTTGGCTATTTGGCTGGTCGTACGATGCCCGGAGTCACCTAGTGCAG,8690 fluorescence intensity (a.u.)
11,GCCCGGCCCATGGCACGCCTTTTTGGCCCGGCCCAAGCACCGGAGTCACCTAGTGCAG,8050 fluorescence intensity (a.u.)
12,ACTTTTTTTTCCCTCTTTGACTCTTTAACTTACCTGCTCCCGGAGTCACCTAGTGCAG,8950 fluorescence intensity (a.u.)
13,TTTCTTTTGTTGCGACTTGTTTTATACCACATCCATCCCACGGAGTCACCTAGTGCAG,10400 fluorescence intensity (a.u.)
14,AATCGGATATATAAACTTTTGTCTTATAAACTTTGGTTCTCGGAGTCACCTAGTGCAG,8140 fluorescence intensity (a.u.)
15,ATCCCACCGTGGCGCCACCCTATTGGGCCCTACTCTTCAGCGGAGTCACCTAGTGCAG,8780 fluorescence intensity (a.u.)
16,CTATACATTTACGTCGTCTAGCTATATTACACGTTACTTTCGGAGTCACCTAGTGCAG,14600 fluorescence intensity (a.u.)
17,CTGCTGGCCCCACCCGTCATATACACCCTCATCCAGCCGGCGGAGTCACCTAGTGCAG,8030 fluorescence intensity (a.u.)
18,CTTACCATTACAATAACTGATATGTGAGTCCTATTTTCTTCGGAGTCACCTAGTGCAG,8360 fluorescence intensity (a.u.)
19,ATCCTATTTTCCTTACTCCTCTAAACTCTATTCCCCTTCTCGGAGTCACCTAGTGCAG,8580 fluorescence intensity (a.u.)
20,GCCGTCCATTAAGCAATACAGTACATATCTCGTATTCTCACGGAGTCACCTAGTGCAG,10800 fluorescence intensity (a.u.)
21,CGGTCTGGCTGATTGTGTTGTTGTAACAAAAACTTTTTTTCGGAGTCACCTAGTGCAG,9230 fluorescence intensity (a.u.)

# Reprinted at random: three entries already listed.
row,Sequence,binding signal
12,ACTTTTTTTTCCCTCTTTGACTCTTTAACTTACCTGCTCCCGGAGTCACCTAGTGCAG,8950 fluorescence intensity (a.u.)
15,ATCCCACCGTGGCGCCACCCTATTGGGCCCTACTCTTCAGCGGAGTCACCTAGTGCAG,8780 fluorescence intensity (a.u.)
20,GCCGTCCATTAAGCAATACAGTACATATCTCGTATTCTCACGGAGTCACCTAGTGCAG,10800 fluorescence intensity (a.u.)

# As entered above.
# In binding signal, TTGTTAATCCAACCTGCCTCTATGCCTATGCGTATGTTCTCGGAGTCACCTAGTGCAG shows 9180 fluorescence intensity (a.u.)
# In binding signal, TTTCAACTATGCCTAATACTCTTGCTGGGTCGGTTGCAACCGGAGTCACCTAGTGCAG shows 10200 fluorescence intensity (a.u.)

# Additional records.

row,Sequence,binding signal
1,GTTTAAATGAGCTTAGGGGTATACATTTCTGATTTTGTGACGGAGTCACCTAGTGCAG,11100 fluorescence intensity (a.u.)
2,CTAAAGCGTTATCCCACACGTGGATCCATCCCCACCGTCCCGGAGTCACCTAGTGCAG,8530 fluorescence intensity (a.u.)
3,ACGTTCCATTACTCATATTCATATAAATATTAATGAATACCGGAGTCACCTAGTGCAG,8090 fluorescence intensity (a.u.)
4,GTCGATCTCCCTGCTTTTCCCAGTACAAACTGCAACTGTTCGGAGTCACCTAGTGCAG,8290 fluorescence intensity (a.u.)
5,TCCGGAGGAGGAGGAGGAGTTGGGGTGGAGGGGAGCTATGCGGAGTCACCTAGTGCAG,9340 fluorescence intensity (a.u.)
6,GTTTTTTGGCCCCGTTTATTGTTTATCCTTTATTCTAACACGGAGTCACCTAGTGCAG,15700 fluorescence intensity (a.u.)
7,GACCACGCACTTCTGCTGTAATAATCACTAATTCACACAACGGAGTCACCTAGTGCAG,10500 fluorescence intensity (a.u.)
8,GTCATTTTCCATCACATCAACCTGTCATACACACACAACTCGGAGTCACCTAGTGCAG,9180 fluorescence intensity (a.u.)
9,ATTTCACAATCACCTTTTTGGCCATTTTGCACCTTAATTACGGAGTCACCTAGTGCAG,10100 fluorescence intensity (a.u.)
10,AAAATTCCTAAAACTACTTGCTACTATTCTCTCTCCAACTCGGAGTCACCTAGTGCAG,8240 fluorescence intensity (a.u.)
11,TTGGAACTACTCCCTCGATCTACTTTTGATAATCATTTTTCGGAGTCACCTAGTGCAG,8800 fluorescence intensity (a.u.)
12,TTTATTTTTATTCTGAATTTTAATTAATCTCGTATTGGGTCGGAGTCACCTAGTGCAG,8380 fluorescence intensity (a.u.)
13,ACTTCTCTTCGGTGTTTTGCTTGCTTCGGATTTCAGAATTCGGAGTCACCTAGTGCAG,13500 fluorescence intensity (a.u.)
14,CTCCTCGCGCCACGTCACCCCTCCGGATCCCTTTAAAACCCGGAGTCACCTAGTGCAG,9350 fluorescence intensity (a.u.)
15,ATTTCGTCAACATAGATACAATGTCATTTTTTTTTCTTTTCGGAGTCACCTAGTGCAG,8690 fluorescence intensity (a.u.)
16,ATTCGCTGCCGGGGACGCCGTCTTCTCCGTCAACTCCGGCCGGAGTCACCTAGTGCAG,10400 fluorescence intensity (a.u.)
17,GGGTTGGTTTGGTTTGGTTGCTTCTTCTCTGCTTCAACGGCGGAGTCACCTAGTGCAG,40000 fluorescence intensity (a.u.)
18,AAAGGAATGGCCCAAATAAACAAGTTTTTTCCTAAAATAACGGAGTCACCTAGTGCAG,63000 fluorescence intensity (a.u.)
19,AGTTCCTTGCACCTAATGATATGAGTTTATATTTCTGAACCGGAGTCACCTAGTGCAG,8080 fluorescence intensity (a.u.)
20,CCTACACTGAAGTTAAGCAGATCTTCCAGGCCTCGTGTTTCGGAGTCACCTAGTGCAG,8780 fluorescence intensity (a.u.)
21,GCCTCCAGGTATTTATCATAGCACTGCAGTATTTTTTTTACGGAGTCACCTAGTGCAG,9010 fluorescence intensity (a.u.)

row,Sequence,binding signal
1,GTAGGGTGTTTAATTTTTCTTTTTGAAATTTATTTATTTACGGAGTCACCTAGTGCAG,12900 fluorescence intensity (a.u.)
2,AGCTGACCGCGCGACCGCCACTACCTCCTCGTCATTTCCCCGGAGTCACCTAGTGCAG,8680 fluorescence intensity (a.u.)
3,TCCCACCGTGGAAGCCTCGCCGCCACACTGTCCCAGCCTTCGGAGTCACCTAGTGCAG,8800 fluorescence intensity (a.u.)
4,TGAACGCATCAACACATATATGCACTTCATCCTACTTGTTCGGAGTCACCTAGTGCAG,8470 fluorescence intensity (a.u.)
5,TGGTTAATTACGTTCCGGTTCATGCTATTGAGGTCCGTTCCGGAGTCACCTAGTGCAG,13100 fluorescence intensity (a.u.)
6,GTTTTGTTTCAGCCAGATGGTTTTTCATGTTAGCATTAAACGGAGTCACCTAGTGCAG,8470 fluorescence intensity (a.u.)
7,GCTGCTCACTAGCTTCCCATTCGCTCGGCCTTGGAGCGCGCGGAGTCACCTAGTGCAG,8130 fluorescence intensity (a.u.)
8,ACCTACGCTACGCAAGCTTATCTATTTGCCGCCTTTTTCACGGAGTCACCTAGTGCAG,10900 fluorescence intensity (a.u.)
9,ACTACTTTCTCCGTTCCAAAATATAGCTACCTATTACATGCGGAGTCACCTAGTGCAG,8830 fluorescence intensity (a.u.)
10,ATTCTATACTTGGCACAAATGCTCGTATTTAAGGTTATTTCGGAGTCACCTAGTGCAG,8250 fluorescence intensity (a.u.)
11,GGTTTTAAGCTTTGGAGGTGTGCATTTTTTGTACCATATTCGGAGTCACCTAGTGCAG,8580 fluorescence intensity (a.u.)
12,CGTGGCTTCGCTCCCACCGACCACCGCCGCCGCTTCCCCGCGGAGTCACCTAGTGCAG,10300 fluorescence intensity (a.u.)
13,ACACGGTTTTCAAAACACAACTTTGACTTCTTGTTTCTATCGGAGTCACCTAGTGCAG,8180 fluorescence intensity (a.u.)
14,CCACCGCCCGCCGTCGTCTCTCTCTCTCTCTCTCTCTCTTCGGAGTCACCTAGTGCAG,9970 fluorescence intensity (a.u.)
15,CTTTTCACTTTGTACCATATGCTGATTTACTGCCTTGTTTCGGAGTCACCTAGTGCAG,10500 fluorescence intensity (a.u.)
16,CGGGTCGCTGCCGCTGATTTGCCCAAGTAGATTTGGACTCCGGAGTCACCTAGTGCAG,11600 fluorescence intensity (a.u.)
17,GCGTTCGGTTAAGCCCTGCCGTGAATTTTAGCCCGGCCCACGGAGTCACCTAGTGCAG,9620 fluorescence intensity (a.u.)
18,GTTGTTGTTGTTGTTGTTGTTGTTGTTGTTTCTTTGCATTCGGAGTCACCTAGTGCAG,11500 fluorescence intensity (a.u.)
19,TCATATTGTACCTTCCACTTTTATTCTTTTAAAGCCTATACGGAGTCACCTAGTGCAG,9560 fluorescence intensity (a.u.)
20,AAAATTGATGTTCTCTTTGGTGCATTTCTTTCTTATTGTCCGGAGTCACCTAGTGCAG,8490 fluorescence intensity (a.u.)
21,AGAGTCGCCGCCACGATGACACACACGCCACGCGCCCCGACGGAGTCACCTAGTGCAG,8350 fluorescence intensity (a.u.)
